# Some of the results follow. Further columns of the screen follow, without active or inactive calls. Compounds called inactive in the main read-out are mostly missing here. Words in brackets tell the shape of the fitted curve; partial curves, single points and poor fits give uncertain potencies.
# Assay: qHTS Assay for Lipid Storage Modulators in Drosophila S3 Cells;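 on cell number change: cells counted by Cell Tracker Red CMTPX staining in the red channel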
# Details: BODIPY lipid droplet fluorescence, 18-24 h; for cell number change: measured here: cell count max response, cells fed with added oleic acid
# Outline: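 Laser-scanning cytometry quantifies lipid droplet accumulation (500–530 nm total intensity; droplet/cell object ratio) in oleic acid-fed (400 uM added) Drosophila S3 cells treated with a concentration series. 20 uM Triacsin C defined 100% inhibition.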
# [1] = measured here: cell number channel AC50, cells fed with added oleic acid
# [2] = measured here: lipid fluorescence (Fed channel) AC50, cells fed with added oleic acid
smiles,measurement,setting,value
Cc1ccc(S(=O)(=O)/C(C#N)=C/c2c(N3CCC(C(N)=O)CC3)nc3ccccn3c2=O)cc1,cell number change,,45.9%
same,AC50,[1],"1.84 µM [rising, partial curve]"
O=C(NCc1ccc2c(c1)OCO2)c1nc(Cn2cc([N+](=O)[O-])cn2)no1,cell number change,,-5.71%
same,AC50,[1],"0.013 µM [rising, full curve, poor fit]"
O=C(O)c1cccc(N2C(=S)N=C(Nc3ccccc3)C23CCCCC3)c1,cell number change,,-47.2%
same,AC50,[1],"20.6 µM [falling, single point]"
O=C(Nc1nnc(C23CC4CC(CC(C4)C2)C3)s1)c1ccc(N2C(=O)CCC2=O)cc1,cell number change,,-17.3%
same,AC50,[1],"6.51 µM [falling, single point]"
C=CCn1c(-c2cccc(S(=O)(=O)N3CCOCC3)c2)n[nH]c1=S,cell number change,,16.5%
CCCCNC(=O)CN(C1CCCCC1)S(C)(=O)=O,cell number change,,-188%
same,AC50,[1],"18.4 µM [falling, single point]"
same,AC50,[2],"25.9 µM [falling, single point]"
CC(C)Oc1ccccc1OCCCOc1cccc2cccnc12,cell number change,,-11.7%
same,AC50,[2],"2.91 µM [falling, partial curve, poor fit]"
Cc1ccc2nc(S(=O)(=O)O)[nH]c2c1,cell number change,,-25.6%
same,AC50,[2],"29.1 µM [falling, single point]"
Cc1ccc2c(c1)N(C(=O)CCC(=O)Nc1ccccc1Cl)CC(C)O2 (centres undefined),cell number change,,7.2%
CC(NC(=O)CN1CCN(S(=O)(=O)c2ccc(Br)cc2)CC1)c1ccccc1 (centres undefined),cell number change,,115%
same,AC50,[1],"20.6 µM [rising, single point]"
O=C(Nc1cc(C(F)(F)F)ccc1Cl)C1CCN(c2nnc(-n3cccc3)s2)CC1,cell number change,,-18.4%
same,AC50,[2],"29.1 µM [falling, single point]"
CCOC(=O)C1CCN(c2nc(C)nc3c2oc2ccccc23)CC1,cell number change,,-31.4%
same,AC50,[1],"29.1 µM [falling, partial curve]"
Cc1cc(C)nc(SCc2cn3c(C)cc(C)nc3n2)n1,cell number change,,18.1%
same,AC50,[2],"4.61 µM [rising, full curve]"
CC/C(=N\NC(=O)CSCc1ccccc1Br)c1ccc2c(c1)OCCO2,AC50,[1],"1.3 µM [rising, full curve, poor fit]"
COc1ccc(OCCCC(=O)Oc2ccc(OC)cc2)cc1,cell number change,,-70.5%
same,AC50,[1],"3.26 µM [falling, partial curve]"
CCOC(=O)N1CCC(Nc2c(NCCCOC)c(=O)c2=O)CC1,cell number change,,-43.6%
same,AC50,[1],"4.11 µM [falling, full curve]"
same,AC50,[2],"5.17 µM [falling, full curve]"
CCc1nccn1S(=O)(=O)c1ccc2ccccc2c1,cell number change,,-0.424%
same,AC50,[1],"5.17 µM [falling, single point]"
same,AC50,[2],"16.4 µM [falling, single point]"

# Nothing new here: an excerpt of the list.
smiles,measurement,setting,value
O=C(O)c1cccc(N2C(=S)N=C(Nc3ccccc3)C23CCCCC3)c1,AC50,[1],"20.6 µM [falling, single point]"
O=C(Nc1nnc(C23CC4CC(CC(C4)C2)C3)s1)c1ccc(N2C(=O)CCC2=O)cc1,cell number change,,-17.3%

# Source: PubChem BioAssay AID2685 (National Center for Advancing Translational Sciences (NCATS), 2010)
